PubChem BioAssay AID720505 – Drosophila RNAi Screening Center | 2013

Screen: 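Fly regulators or components of the CRAC channel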 (primary screen)
Cells: Drosophila S2R+ cells
Reagent: long dsRNA against Drosophila genes
Challenge: thapsigargin (2 µM) in calcium-free buffer to empty internal stores, then 2 mM calcium added back
Detection: 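Fluo-4 signal in 384-well plates read on a FLIPR after thapsigargin (2 µM, calcium-free) store depletion and 2 mM calcium add-back; unnormalised mean endpoint per well; screen run twice, selected wells retested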
Scale: calcium signal: higher = more calcium entry after store depletion
Active means: 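About 1500 genes called as lowering calcium entry, by varying amounts, judged against per-plate control wells with STIM1 as positive and Rho1 as negative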
Calls: active = called as lowering calcium entry; inactive = not called
The screen tested about 20,000 reagents; below is a random part of those that have a named target and a result. In the full data, about 2,100 (10%) got an active call. 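Raw plate signals without normalisation; calls rest on control-based scores that were not deposited; replicate 2 separates called from uncalled poorly.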 Entries without a mark were called inactive. A plus sign joins genes that one reagent is predicted to hit. The record does not give: the amount of reagent, the time to read-out.

AGO2 (GeneID 39683) [DRSC09999] | calcium signal, replicate 1 = 66.7; calcium signal, replicate 2 = 108
AGO2 (GeneID 39683) [DRSC10847] | calcium signal, replicate 1 = 125; calcium signal, replicate 2 = 68.1
CG13877 + pyx [DRSC08347] | calcium signal, replicate 1 = 91.5; calcium signal, replicate 2 = 140
dpy (GeneID 318824) [DRSC00233] | calcium signal, replicate 1 = 91.1; calcium signal, replicate 2 = 94.9
dpy (GeneID 318824) [DRSC00234] | calcium signal, replicate 1 = 145; calcium signal, replicate 2 = 135
dpy (GeneID 318824) [DRSC00472] | calcium signal, replicate 1 = 131; calcium signal, replicate 2 = 138
CG8248 (GeneID 35888) [DRSC07124] | calcium signal, replicate 1 = 167; calcium signal, replicate 2 = 170
msps (GeneID 41952) [DRSC17004] | calcium signal, replicate 1 = 134; calcium signal, replicate 2 = 161
Gasp (GeneID 40745) [DRSC12349] | calcium signal, replicate 1 = 117; calcium signal, replicate 2 = 148
CSN5 (GeneID 42000) [DRSC16592] | calcium signal, replicate 1 = 174; calcium signal, replicate 2 = 198
CSN5 (GeneID 42000) [DRSC22381] | calcium signal, replicate 1 = 91.1; calcium signal, replicate 2 = 230
Arpc1 (GeneID 34793) [DRSC03438] | calcium signal, replicate 1 = 99.8; calcium signal, replicate 2 = 129
CYLD (GeneID 34380) [DRSC02870] | calcium signal, replicate 1 = 195; calcium signal, replicate 2 = 174
Rpn5 (GeneID 40717) [DRSC12367] | calcium signal, replicate 1 = 109; calcium signal, replicate 2 = 83
CG14722 (GeneID 41419) [DRSC14944] | calcium signal, replicate 1 = 152; calcium signal, replicate 2 = 116
Obp58b (GeneID 37607) [DRSC04161] | calcium signal, replicate 1 = 156; calcium signal, replicate 2 = 223
CG7785 (GeneID 42158) [DRSC16311] | calcium signal, replicate 1 = 70.9 (active); calcium signal, replicate 2 = 145
Pp1-13C (GeneID 48531) [DRSC20269] | calcium signal, replicate 1 = 61.4 (active); calcium signal, replicate 2 = 67
Pp1-13C (GeneID 48531) [DRSC23305] | calcium signal, replicate 1 = 116; calcium signal, replicate 2 = 123
E(var)3-9 (GeneID 41073) [DRSC14451] | calcium signal, replicate 1 = 98.7; calcium signal, replicate 2 = 142
E(var)3-9 (GeneID 41073) [DRSC23242] | calcium signal, replicate 1 = 101; calcium signal, replicate 2 = 132
Arp10 (GeneID 32969) [DRSC19448] | calcium signal, replicate 1 = 119; calcium signal, replicate 2 = 113
CG1161 (GeneID 40638) [DRSC12180] | calcium signal, replicate 1 = 102; calcium signal, replicate 2 = 116
UBL3 (GeneID 32541) [DRSC20298] | calcium signal, replicate 1 = 126; calcium signal, replicate 2 = 141
UBL3 (GeneID 32541) [DRSC23292] | calcium signal, replicate 1 = 175; calcium signal, replicate 2 = 147
CG4367 (GeneID 42409) [DRSC15568] | calcium signal, replicate 1 = 127; calcium signal, replicate 2 = 109
heix (GeneID 34961) [DRSC03542] | calcium signal, replicate 1 = 76.9; calcium signal, replicate 2 = 85.4
Dis3l2 (GeneID 38034) [DRSC08496] | calcium signal, replicate 1 = 149; calcium signal, replicate 2 = 104
CG9961 (GeneID 33459) [DRSC00738] | calcium signal, replicate 1 = 145; calcium signal, replicate 2 = 117
CG9961 (GeneID 33459) [DRSC23343] | calcium signal, replicate 1 = 102; calcium signal, replicate 2 = 115
MCU (GeneID 59223) [DRSC10339] | calcium signal, replicate 1 = 101; calcium signal, replicate 2 = 69.3
mge (GeneID 38459) [DRSC08721] | calcium signal, replicate 1 = 85; calcium signal, replicate 2 = 95.7
CG15650 (GeneID 37373) [DRSC04241] | calcium signal, replicate 1 = 174; calcium signal, replicate 2 = 81.9
Rab19 (GeneID 38930) [DRSC11260] | calcium signal, replicate 1 = 78.5; calcium signal, replicate 2 = 72.6
borr (GeneID 34245) [DRSC02749] | calcium signal, replicate 1 = 84; calcium signal, replicate 2 = 86.9

Sorted by “calcium signal, replicate 2” (ascending): 3 of the entries above.
heix (GeneID 34961) [DRSC03542] | calcium signal, replicate 1 = 76.9; calcium signal, replicate 2 = 85.4
CG4367 (GeneID 42409) [DRSC15568] | calcium signal, replicate 1 = 127; calcium signal, replicate 2 = 109
UBL3 (GeneID 32541) [DRSC23292] | calcium signal, replicate 1 = 175; calcium signal, replicate 2 = 147
